In the supplement of paper PMC10849652:
The other results are listed elsewhere or left out.

Chains of the proteins cited; added tags and fusions are not shown. Lines headed by an entry give the natural chain unless they say otherwise; changes in a name come on top.
UniProt Q8TCF1: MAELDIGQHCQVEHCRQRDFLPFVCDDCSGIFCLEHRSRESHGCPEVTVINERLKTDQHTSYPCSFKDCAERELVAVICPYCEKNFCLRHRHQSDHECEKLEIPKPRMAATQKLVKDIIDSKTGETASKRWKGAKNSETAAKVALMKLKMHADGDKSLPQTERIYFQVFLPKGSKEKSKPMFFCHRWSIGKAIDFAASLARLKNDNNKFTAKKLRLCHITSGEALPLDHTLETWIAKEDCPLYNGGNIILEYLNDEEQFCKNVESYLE
UniProt Q9H2Y7: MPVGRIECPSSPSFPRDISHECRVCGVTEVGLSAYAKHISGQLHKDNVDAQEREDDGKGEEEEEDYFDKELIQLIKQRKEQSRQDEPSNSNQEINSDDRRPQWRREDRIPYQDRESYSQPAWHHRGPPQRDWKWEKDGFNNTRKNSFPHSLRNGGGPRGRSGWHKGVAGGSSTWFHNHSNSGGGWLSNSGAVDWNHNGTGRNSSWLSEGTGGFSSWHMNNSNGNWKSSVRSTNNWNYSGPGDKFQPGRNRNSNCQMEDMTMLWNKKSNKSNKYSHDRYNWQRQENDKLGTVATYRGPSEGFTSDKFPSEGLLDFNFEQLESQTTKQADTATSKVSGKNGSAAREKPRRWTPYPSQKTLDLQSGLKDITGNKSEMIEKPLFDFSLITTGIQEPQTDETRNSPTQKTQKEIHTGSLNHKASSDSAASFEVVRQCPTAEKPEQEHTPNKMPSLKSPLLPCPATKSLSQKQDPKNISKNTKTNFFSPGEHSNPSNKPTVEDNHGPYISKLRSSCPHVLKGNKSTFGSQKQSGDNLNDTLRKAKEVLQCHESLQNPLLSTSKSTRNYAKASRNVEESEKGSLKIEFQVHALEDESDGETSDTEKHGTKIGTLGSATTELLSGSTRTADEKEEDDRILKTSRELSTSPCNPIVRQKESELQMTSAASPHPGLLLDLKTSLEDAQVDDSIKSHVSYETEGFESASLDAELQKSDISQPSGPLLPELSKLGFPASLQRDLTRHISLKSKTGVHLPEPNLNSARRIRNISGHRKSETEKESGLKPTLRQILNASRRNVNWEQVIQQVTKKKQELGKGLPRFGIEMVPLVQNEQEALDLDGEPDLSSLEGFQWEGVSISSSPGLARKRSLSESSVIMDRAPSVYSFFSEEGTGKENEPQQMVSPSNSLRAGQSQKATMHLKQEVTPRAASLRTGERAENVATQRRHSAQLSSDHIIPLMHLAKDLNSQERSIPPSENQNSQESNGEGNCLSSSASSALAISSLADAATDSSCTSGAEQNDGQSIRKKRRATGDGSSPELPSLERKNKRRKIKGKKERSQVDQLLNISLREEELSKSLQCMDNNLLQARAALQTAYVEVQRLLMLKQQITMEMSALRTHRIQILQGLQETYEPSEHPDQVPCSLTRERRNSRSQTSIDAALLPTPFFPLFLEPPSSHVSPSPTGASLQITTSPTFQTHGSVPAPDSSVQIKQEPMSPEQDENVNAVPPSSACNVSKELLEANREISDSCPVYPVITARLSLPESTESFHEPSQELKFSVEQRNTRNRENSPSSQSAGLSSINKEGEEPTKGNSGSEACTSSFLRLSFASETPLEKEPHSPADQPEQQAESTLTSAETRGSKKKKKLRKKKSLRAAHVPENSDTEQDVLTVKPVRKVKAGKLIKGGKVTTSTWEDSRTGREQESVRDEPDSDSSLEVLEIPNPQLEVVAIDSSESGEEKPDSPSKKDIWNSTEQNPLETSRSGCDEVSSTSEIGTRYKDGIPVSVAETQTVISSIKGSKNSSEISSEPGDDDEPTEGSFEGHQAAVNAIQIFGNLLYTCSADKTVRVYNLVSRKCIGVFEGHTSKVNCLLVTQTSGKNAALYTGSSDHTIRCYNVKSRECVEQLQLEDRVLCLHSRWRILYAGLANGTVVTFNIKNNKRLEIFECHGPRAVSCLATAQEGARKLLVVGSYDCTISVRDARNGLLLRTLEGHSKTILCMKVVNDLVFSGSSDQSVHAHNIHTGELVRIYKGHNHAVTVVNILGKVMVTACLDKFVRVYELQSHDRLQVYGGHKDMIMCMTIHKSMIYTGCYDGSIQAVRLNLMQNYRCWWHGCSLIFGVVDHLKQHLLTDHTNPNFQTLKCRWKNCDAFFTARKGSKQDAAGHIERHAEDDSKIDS
UniProt Q8IZN3: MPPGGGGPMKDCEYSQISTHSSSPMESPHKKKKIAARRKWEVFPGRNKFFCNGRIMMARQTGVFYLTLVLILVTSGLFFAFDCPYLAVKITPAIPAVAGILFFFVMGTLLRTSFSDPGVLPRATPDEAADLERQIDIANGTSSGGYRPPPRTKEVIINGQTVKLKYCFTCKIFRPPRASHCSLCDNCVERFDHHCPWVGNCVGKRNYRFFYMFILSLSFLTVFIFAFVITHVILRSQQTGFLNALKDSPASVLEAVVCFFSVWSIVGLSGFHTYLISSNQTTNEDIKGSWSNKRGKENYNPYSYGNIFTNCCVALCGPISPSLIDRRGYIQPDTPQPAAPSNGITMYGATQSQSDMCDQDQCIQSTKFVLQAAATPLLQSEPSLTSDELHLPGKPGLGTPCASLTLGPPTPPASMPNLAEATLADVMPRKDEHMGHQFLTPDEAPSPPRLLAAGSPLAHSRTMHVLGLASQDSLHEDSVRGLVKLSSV
UniProt Q9ULC8: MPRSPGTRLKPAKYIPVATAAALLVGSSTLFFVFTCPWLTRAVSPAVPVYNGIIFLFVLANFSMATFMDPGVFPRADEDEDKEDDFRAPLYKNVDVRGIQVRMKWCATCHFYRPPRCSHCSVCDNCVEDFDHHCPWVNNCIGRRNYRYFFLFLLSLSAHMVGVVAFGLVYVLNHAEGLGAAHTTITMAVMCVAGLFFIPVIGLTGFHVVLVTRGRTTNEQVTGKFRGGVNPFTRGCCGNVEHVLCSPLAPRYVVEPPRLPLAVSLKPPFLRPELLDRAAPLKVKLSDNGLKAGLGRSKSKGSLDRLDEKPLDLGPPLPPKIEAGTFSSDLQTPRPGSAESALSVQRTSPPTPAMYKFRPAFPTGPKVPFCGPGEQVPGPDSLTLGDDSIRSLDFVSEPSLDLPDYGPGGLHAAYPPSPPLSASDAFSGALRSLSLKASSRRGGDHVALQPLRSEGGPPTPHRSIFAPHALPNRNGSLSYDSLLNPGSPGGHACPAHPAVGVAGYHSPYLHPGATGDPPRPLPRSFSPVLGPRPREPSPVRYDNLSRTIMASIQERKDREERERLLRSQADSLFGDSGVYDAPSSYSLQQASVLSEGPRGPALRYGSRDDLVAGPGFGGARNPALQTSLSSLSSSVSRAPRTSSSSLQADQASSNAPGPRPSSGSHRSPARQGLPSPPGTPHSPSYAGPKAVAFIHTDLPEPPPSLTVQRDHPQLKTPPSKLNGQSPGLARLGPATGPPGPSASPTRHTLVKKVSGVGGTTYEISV
UniProt Q9Y548: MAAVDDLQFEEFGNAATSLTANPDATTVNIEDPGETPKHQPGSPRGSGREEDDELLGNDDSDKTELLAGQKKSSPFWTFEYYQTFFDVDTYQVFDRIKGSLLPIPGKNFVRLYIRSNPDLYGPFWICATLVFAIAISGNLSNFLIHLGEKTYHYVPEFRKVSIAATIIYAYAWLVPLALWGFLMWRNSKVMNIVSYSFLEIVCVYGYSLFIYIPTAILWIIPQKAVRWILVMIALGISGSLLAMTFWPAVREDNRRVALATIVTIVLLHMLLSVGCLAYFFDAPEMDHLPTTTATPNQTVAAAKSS
UniProt Q8IX07: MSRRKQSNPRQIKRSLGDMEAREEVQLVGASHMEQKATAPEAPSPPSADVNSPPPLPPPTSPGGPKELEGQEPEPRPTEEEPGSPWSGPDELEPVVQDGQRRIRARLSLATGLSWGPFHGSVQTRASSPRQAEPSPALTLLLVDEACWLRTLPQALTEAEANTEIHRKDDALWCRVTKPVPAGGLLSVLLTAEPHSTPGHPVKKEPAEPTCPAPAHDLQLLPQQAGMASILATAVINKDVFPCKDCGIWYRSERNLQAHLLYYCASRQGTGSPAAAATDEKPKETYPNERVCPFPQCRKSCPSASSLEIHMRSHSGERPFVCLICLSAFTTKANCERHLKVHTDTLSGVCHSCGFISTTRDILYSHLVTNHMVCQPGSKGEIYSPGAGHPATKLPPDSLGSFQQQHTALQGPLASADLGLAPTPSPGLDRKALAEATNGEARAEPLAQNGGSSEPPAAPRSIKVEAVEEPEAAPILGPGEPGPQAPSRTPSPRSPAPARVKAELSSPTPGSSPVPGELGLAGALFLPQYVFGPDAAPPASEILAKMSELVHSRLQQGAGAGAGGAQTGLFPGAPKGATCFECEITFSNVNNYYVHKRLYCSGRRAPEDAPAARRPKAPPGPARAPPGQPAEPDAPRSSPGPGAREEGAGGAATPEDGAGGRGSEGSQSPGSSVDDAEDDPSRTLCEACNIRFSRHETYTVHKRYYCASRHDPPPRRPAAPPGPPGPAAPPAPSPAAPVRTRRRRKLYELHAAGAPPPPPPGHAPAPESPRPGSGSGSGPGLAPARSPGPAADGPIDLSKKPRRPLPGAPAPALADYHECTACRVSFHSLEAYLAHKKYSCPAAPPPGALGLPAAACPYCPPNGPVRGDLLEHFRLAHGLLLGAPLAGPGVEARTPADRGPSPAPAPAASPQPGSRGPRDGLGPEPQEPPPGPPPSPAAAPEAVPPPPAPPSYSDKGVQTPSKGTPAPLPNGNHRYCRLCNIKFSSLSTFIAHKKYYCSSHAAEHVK
UniProt O60315: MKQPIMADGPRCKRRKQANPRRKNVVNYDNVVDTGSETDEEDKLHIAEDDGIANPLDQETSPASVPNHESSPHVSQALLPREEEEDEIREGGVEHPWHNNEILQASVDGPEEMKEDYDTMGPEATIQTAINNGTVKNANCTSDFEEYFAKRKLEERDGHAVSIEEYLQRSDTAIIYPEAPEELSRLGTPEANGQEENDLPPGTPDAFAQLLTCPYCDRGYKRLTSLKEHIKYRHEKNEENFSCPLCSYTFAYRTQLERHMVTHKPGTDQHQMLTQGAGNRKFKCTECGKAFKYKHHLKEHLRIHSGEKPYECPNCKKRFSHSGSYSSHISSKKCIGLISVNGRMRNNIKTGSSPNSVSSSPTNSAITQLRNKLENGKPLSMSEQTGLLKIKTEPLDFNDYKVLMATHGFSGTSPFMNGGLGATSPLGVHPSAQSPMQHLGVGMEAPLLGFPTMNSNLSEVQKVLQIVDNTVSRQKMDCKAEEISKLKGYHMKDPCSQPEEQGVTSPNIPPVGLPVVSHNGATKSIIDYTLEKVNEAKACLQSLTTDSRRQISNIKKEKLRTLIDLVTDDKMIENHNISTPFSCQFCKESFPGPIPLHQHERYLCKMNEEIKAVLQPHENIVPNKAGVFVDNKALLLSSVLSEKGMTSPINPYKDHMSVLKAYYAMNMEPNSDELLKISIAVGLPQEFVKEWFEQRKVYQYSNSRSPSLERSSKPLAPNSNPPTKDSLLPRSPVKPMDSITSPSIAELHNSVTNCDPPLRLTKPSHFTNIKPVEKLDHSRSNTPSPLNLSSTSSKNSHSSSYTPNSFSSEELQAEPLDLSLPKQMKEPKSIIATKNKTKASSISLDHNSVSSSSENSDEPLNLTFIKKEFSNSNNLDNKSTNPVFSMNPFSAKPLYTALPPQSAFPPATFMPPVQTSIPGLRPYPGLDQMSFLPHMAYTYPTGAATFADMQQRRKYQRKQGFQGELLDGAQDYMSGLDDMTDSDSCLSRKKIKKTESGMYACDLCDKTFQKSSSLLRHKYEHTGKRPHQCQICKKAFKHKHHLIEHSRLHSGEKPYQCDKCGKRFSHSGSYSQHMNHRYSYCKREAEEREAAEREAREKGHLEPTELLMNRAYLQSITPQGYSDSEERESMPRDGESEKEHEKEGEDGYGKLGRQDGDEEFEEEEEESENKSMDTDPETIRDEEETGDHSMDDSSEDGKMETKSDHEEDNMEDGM
UniProt Q15776: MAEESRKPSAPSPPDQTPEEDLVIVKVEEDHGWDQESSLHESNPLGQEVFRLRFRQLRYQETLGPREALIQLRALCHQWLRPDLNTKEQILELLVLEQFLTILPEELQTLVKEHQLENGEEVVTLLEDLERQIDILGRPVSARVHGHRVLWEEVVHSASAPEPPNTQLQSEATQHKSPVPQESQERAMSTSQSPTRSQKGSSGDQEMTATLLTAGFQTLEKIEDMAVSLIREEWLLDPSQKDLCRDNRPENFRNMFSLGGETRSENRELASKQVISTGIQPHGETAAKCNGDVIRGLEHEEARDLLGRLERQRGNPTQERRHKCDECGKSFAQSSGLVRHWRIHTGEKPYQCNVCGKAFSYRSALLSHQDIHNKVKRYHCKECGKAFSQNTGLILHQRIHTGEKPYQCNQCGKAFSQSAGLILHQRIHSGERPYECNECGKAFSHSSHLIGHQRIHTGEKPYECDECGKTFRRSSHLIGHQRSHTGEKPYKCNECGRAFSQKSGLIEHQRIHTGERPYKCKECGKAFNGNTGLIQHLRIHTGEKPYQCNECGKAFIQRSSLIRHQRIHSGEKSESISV

Key:
Experiment in all cases: log2 fold change, soluble protein after heating vs DMSO (PISA); higher = thermal stabilisation; K562 cells, 10 uM, 30 min; active = over 0.2 and 3.5 SD of the protein, either way, in both replicates (recomputed)
bafetinib = compound: Cc1ccc(NC(=O)c2ccc(CN3CC[C@H](N(C)C)C3)c(C(F)(F)F)c2)cc1Nc1nccc(-c2cncnc2)n1 [bafetinib]
Outline: (§1)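 K562 cells at 2×10^6 cells/mL were treated for 30 min with 10 μM compound, and aliquots were heated for 3 min over 48°C-58°C before pooling. Extraction used PBS with 0.5% NP-40 at 4°C, and soluble protein was the supernatant after 21,000xg for 90 min, measured by TMTpro 16plex LC-MS/MS with channel sums equalised. Thermal stability values, relative to control samples and from duplicates, are log2 fold changes.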

[1] = compound: Cc1cccc(CC(=O)N2CCc3c2ccc(-c2cn(C)c4ncnc(N)c24)c3F)n1
Outline: as §1

nilotinib = compound: Cc1cn(-c2cc(NC(=O)c3ccc(C)c(Nc4nccc(-c5cccnc5)n4)c3)cc(C(F)(F)F)c2)cn1 [nilotinib]
Outline: as §1

[2] = compound: Cc1nc(Nc2n[nH]c3c2CN(C(=O)N[C@H](CN(C)C)c2ccccc2)C3(C)C)c2sccc2n1
Outline: as §1

dasatinib = compound: Cc1nc(Nc2ncc(C(=O)Nc3c(C)cccc3Cl)s2)cc(N2CCN(CCO)CC2)n1 [dasatinib]
Outline: as §1

[3] = compound: Cc1ncc(-c2ccnc(Nc3ccc(S(C)(=O)=O)cc3)n2)n1C(C)C
Outline: as §1

[4] = compound: Cn1cc(-c2ccc3c(c2)CCN3C(=O)Cc2cccc(C(F)(F)F)c2)c2c(N)ncnc21
Outline: as §1

[5] = compound: Cn1cc(-c2ccc3nnc(C(F)(F)c4ccc5ncccc5c4)n3n2)cn1
Outline: as §1

tipifarnib = compound: Cn1cncc1[C@@](N)(c1ccc(Cl)cc1)c1ccc2c(c1)c(-c1cccc(Cl)c1)cc(=O)n2C [tipifarnib]
Outline: as §1

mubritinib = compound: FC(F)(F)c1ccc(/C=C/c2nc(COc3ccc(CCCCn4ccnn4)cc3)co2)cc1 [mubritinib]
Outline: as §1

[6] = compound: NC(=O)c1cnc(N[C@@H]2CCCC[C@@H]2N)nc1Nc1cccc(-n2nccn2)c1
Outline: as §1

[7] = compound: NC1(c2ccc(-c3nc4ccn5c(=O)[nH]nc5c4cc3-c3ccccc3)cc2)CCC1
Outline: as §1

[8] = compound: NCC(=O)Nc1ccc(-n2nc(C(F)(F)F)cc2-c2ccc3c(ccc4ccccc43)c2)cc1
Outline: as §1

vorinostat = compound: O=C(CCCCCCC(=O)Nc1ccccc1)NO [vorinostat]
Outline: as §1

citarinostat = compound: O=C(CCCCCCNC(=O)c1cnc(N(c2ccccc2)c2ccccc2Cl)nc1)NO [citarinostat]
Outline: as §1

silmitasertib = compound: O=C(O)c1ccc2c(c1)nc(Nc1cccc(Cl)c1)c1ccncc12 [silmitasertib]
Outline: as §1

[9] = compound: O=C1NC(=O)C(c2cnc3ccccn23)=C1c1cn2c3c(cc(F)cc13)CN(C(=O)N1CCCCC1)CC2
Outline: as §1

[10] = compound: c1cc(OCCN2CCCCC2)cc(-c2n[nH]c3ccc(-c4nnc[nH]4)cc23)c1
Outline: as §1

[11] = compound: NC(=O)Nc1cc(-c2cccc(F)c2)sc1C(=O)N[C@H]1CCCNC1
Outline: as §1

entinostat = compound: Nc1ccccc1NC(=O)c1ccc(CNC(=O)OCc2cccnc2)cc1 [entinostat]
Outline: as §1

Row | Target | log2 fold change (bafetinib) | log2 fold change [1] | log2 fold change (nilotinib) | log2 fold change [2] | log2 fold change (dasatinib) | log2 fold change [3] | log2 fold change [4] | log2 fold change [5] | log2 fold change (tipifarnib) | log2 fold change (mubritinib) | log2 fold change [6] | log2 fold change [7] | log2 fold change [8] | log2 fold change (vorinostat) | log2 fold change (citarinostat) | log2 fold change (silmitasertib) | log2 fold change [9] | log2 fold change [10] | log2 fold change [11] | log2 fold change (entinostat)
1 | YES1 (UniProt P07947) | inactive: 0.049 | inactive: 0.007 | inactive: -0.033 | active: -0.746 | active: -0.737 | inactive: -0.051 | inactive: -0.284 | inactive: 0.008 | inactive: -0.001 | inactive: -0.067 | inactive: -0.114 | inactive: -0.012 | inactive: 0.001 | inactive: 0.069 | inactive: 0.008 | inactive: 0.004 | inactive: 0.011 | inactive: -0.235 | – | –
2 | YIF1A (UniProt O95070) | inactive: 0.006 | inactive: 0.037 | inactive: -0.141 | inactive: 0.044 | inactive: 0.025 | inactive: -0.064 | inactive: 0.043 | inactive: 0.102 | inactive: 0.103 | inactive: 0.002 | inactive: 0.07 | inactive: 0.049 | inactive: 0.118 | inactive: -0.028 | – | inactive: 0.055 | – | – | – | –
3 | ZCCHC9 (UniProt Q8N567) | inactive: 0.144 | inactive: -0.048 | inactive: -0.046 | inactive: 0.159 | – | inactive: 0.005 | inactive: -0.074 | inactive: -0.081 | inactive: 0.113 | inactive: -0.087 | inactive: 0.049 | inactive: 0.218 | inactive: -0.013 | inactive: -0.065 | inactive: -0.161 | inactive: 0.095 | inactive: 0.229 | inactive: -0.067 | inactive: -0.11 | inactive: -0.112
4 | ZFAND1 (UniProt Q8TCF1) | inactive: -0.03 | – | inactive: 0 | inactive: -0.046 | – | inactive: 0.059 | – | inactive: -0.202 | inactive: -0.2 | inactive: 0.009 | – | inactive: -0.088 | inactive: 0.439 | – | inactive: 0.119 | inactive: -0.158 | – | inactive: 0.072 | inactive: 0.025 | inactive: 0.002
5 | ZBTB10 (UniProt Q96DT7) | inactive: -0.143 | inactive: 0.001 | inactive: -0.076 | inactive: -0.145 | – | inactive: -0.042 | inactive: -0.173 | – | inactive: 0.012 | inactive: -0.016 | inactive: 0.12 | inactive: 0.077 | – | inactive: -0.031 | inactive: 0.116 | inactive: -0.023 | inactive: 0.112 | inactive: -0.111 | inactive: 0.029 | inactive: -0.007
6 | XP32 (UniProt Q5T750) | inactive: -0.132 | inactive: 0.051 | inactive: 0.783 | inactive: -0.105 | inactive: -0.741 | inactive: 0.622 | inactive: 0.373 | inactive: 0.409 | – | inactive: -0.829 | inactive: 0.537 | inactive: 0.184 | – | inactive: 0.077 | inactive: 0.026 | inactive: 0.213 | – | inactive: 0.907 | – | –
7 | YIPF2 (UniProt Q9BWQ6) | inactive: -0.003 | – | inactive: 0.253 | inactive: -0.211 | – | inactive: 0.133 | inactive: -0.125 | inactive: -0.091 | – | – | – | – | – | – | – | – | inactive: -0.063 | – | – | –
8 | YBX3 isoform 2 (UniProt P16989) | inactive: 0.033 | – | inactive: 0.072 | inactive: 0.042 | inactive: 0.354 | inactive: -0.003 | inactive: -0.099 | inactive: 0.148 | inactive: 0.071 | inactive: -0.004 | inactive: 0.032 | inactive: 0.308 | inactive: 0.155 | – | inactive: -0.013 | inactive: 0.161 | inactive: 0.072 | inactive: -0.062 | inactive: -0.062 | inactive: -0.13
9 | ZNF106 (UniProt Q9H2Y7) | inactive: -0.014 | – | inactive: 0.01 | inactive: 0.015 | inactive: -0.092 | inactive: -0.105 | – | – | inactive: -0.061 | – | – | – | inactive: -0.1 | – | inactive: -0.192 | – | – | inactive: 0.028 | inactive: 0.124 | inactive: 0.092
10 | ZMYM2 (UniProt Q9UBW7) | inactive: -0.2 | – | – | – | inactive: 0.083 | – | – | – | inactive: -0.147 | – | – | – | – | – | – | – | – | – | – | –
11 | ZMYND8 isoform 19 (UniProt Q9ULU4) | inactive: 0.088 | – | – | – | inactive: -0.003 | – | inactive: -0.044 | – | inactive: -0.063 | – | – | – | – | – | inactive: 0.095 | – | inactive: -0.077 | inactive: 0.138 | – | –
12 | ZDHHC14 (UniProt Q8IZN3) | inactive: -0.119 | – | inactive: -0.034 | inactive: -0.03 | inactive: 0.074 | inactive: -0.025 | inactive: 0.114 | inactive: -0.063 | inactive: 0.046 | inactive: -0.045 | inactive: -0.155 | inactive: 0.097 | inactive: 0.025 | – | inactive: -0.095 | inactive: -0.018 | inactive: -0.034 | inactive: 0.137 | inactive: -0.14 | inactive: -0.087
13 | ZDHHC8 isoform 3 (UniProt Q9ULC8) | inactive: -0.03 | – | inactive: 0.086 | inactive: 0.013 | inactive: -0.112 | inactive: -0.014 | – | – | – | – | – | – | – | – | – | – | inactive: 0.029 | – | – | –
14 | YIPF1 (UniProt Q9Y548) | inactive: -0.122 | – | inactive: 0 | inactive: 0.121 | – | inactive: -0.032 | inactive: -0.129 | – | inactive: -0.007 | inactive: 0.036 | – | inactive: -0.002 | inactive: -0.001 | – | inactive: 0.053 | inactive: 0.026 | – | inactive: 0.116 | inactive: -0.172 | inactive: -0.112
15 | ZEB1 isoform 2 (UniProt P37275) | inactive: 0.122 | inactive: -0.065 | inactive: 0.279 | inactive: -0.096 | inactive: 0.008 | inactive: -0.025 | inactive: 0.076 | – | inactive: 0.04 | inactive: 0.073 | inactive: -0.007 | inactive: 0.013 | inactive: 0 | inactive: 0.272 | inactive: 0.084 | inactive: -0.1 | – | inactive: 0.011 | inactive: 0.043 | inactive: 0.036
16 | ZBTB3 (UniProt Q9H5J0) | inactive: -0.062 | inactive: 0.063 | inactive: 0.084 | inactive: -0.027 | – | inactive: 0.036 | inactive: 0.071 | inactive: 0.014 | inactive: -0.111 | inactive: 0.003 | inactive: 0.097 | inactive: 0.008 | inactive: 0.061 | inactive: -0.126 | inactive: -0.111 | inactive: -0.001 | – | inactive: 0.084 | – | –
17 | YWHAZ (UniProt E7ESK7) | inactive: -0.131 | – | – | – | inactive: -0.094 | – | inactive: 0.102 | inactive: -0.007 | inactive: 0.127 | inactive: 0.11 | inactive: -0.186 | inactive: -0.206 | – | – | inactive: -0.053 | inactive: -0.065 | inactive: -0.239 | inactive: 0.095 | – | –
18 | ZC2HC1A (UniProt Q96GY0) | inactive: 0.139 | inactive: -0.093 | inactive: 0.162 | inactive: 0.041 | inactive: 0.162 | inactive: 0.093 | inactive: -0.06 | inactive: -0.06 | inactive: 0.073 | inactive: -0.005 | inactive: 0.06 | inactive: -0.047 | inactive: 0.164 | inactive: -0.244 | inactive: -0.099 | inactive: 0.125 | inactive: 0.176 | inactive: -0.135 | – | –
19 | ZFPM1 (UniProt Q8IX07) | inactive: 0.252 | – | inactive: 0.022 | inactive: 0.082 | inactive: -0.131 | inactive: -0.175 | inactive: 0.235 | inactive: 0.099 | inactive: 0.193 | – | – | – | inactive: 0.05 | – | inactive: 0.155 | – | inactive: 0.021 | inactive: -0.128 | inactive: 0.032 | inactive: 0.009
20 | ZEB2 (UniProt O60315) | inactive: -0.017 | – | inactive: 0.025 | inactive: -0.149 | inactive: -0.226 | inactive: -0.05 | – | inactive: -0.135 | inactive: 0.045 | inactive: -0.114 | – | inactive: -0.127 | inactive: -0.343 | – | – | inactive: -0.001 | inactive: 0.116 | – | inactive: 0.003 | inactive: -0.03
21 | ZKSCAN8 (UniProt Q15776) | – | inactive: 0.117 | – | – | inactive: -0.196 | – | – | inactive: -0.029 | inactive: 0.181 | – | – | – | inactive: 0.103 | inactive: 0.188 | inactive: -0.024 | – | inactive: 0.268 | inactive: -0.177 | inactive: -0.052 | inactive: -0.006

Reprinted: entries 17 to 18
Row | Target | log2 fold change (bafetinib) | log2 fold change [1] | log2 fold change (nilotinib) | log2 fold change [2] | log2 fold change (dasatinib) | log2 fold change [3] | log2 fold change [4] | log2 fold change [5] | log2 fold change (tipifarnib) | log2 fold change (mubritinib) | log2 fold change [6] | log2 fold change [7] | log2 fold change [8] | log2 fold change (vorinostat) | log2 fold change (citarinostat) | log2 fold change (silmitasertib) | log2 fold change [9] | log2 fold change [10] | log2 fold change [11] | log2 fold change (entinostat)
17 | YWHAZ (UniProt E7ESK7) | inactive: -0.131 | – | – | – | inactive: -0.094 | – | inactive: 0.102 | inactive: -0.007 | inactive: 0.127 | inactive: 0.11 | inactive: -0.186 | inactive: -0.206 | – | – | inactive: -0.053 | inactive: -0.065 | inactive: -0.239 | inactive: 0.095 | – | –
18 | ZC2HC1A (UniProt Q96GY0) | inactive: 0.139 | inactive: -0.093 | inactive: 0.162 | inactive: 0.041 | inactive: 0.162 | inactive: 0.093 | inactive: -0.06 | inactive: -0.06 | inactive: 0.073 | inactive: -0.005 | inactive: 0.06 | inactive: -0.047 | inactive: 0.164 | inactive: -0.244 | inactive: -0.099 | inactive: 0.125 | inactive: 0.176 | inactive: -0.135 | – | –
